Measured values reported in article PMC8396604.

By UniProt entry, the sequences of proteins in these tests, tags left out.
UniProt P80206: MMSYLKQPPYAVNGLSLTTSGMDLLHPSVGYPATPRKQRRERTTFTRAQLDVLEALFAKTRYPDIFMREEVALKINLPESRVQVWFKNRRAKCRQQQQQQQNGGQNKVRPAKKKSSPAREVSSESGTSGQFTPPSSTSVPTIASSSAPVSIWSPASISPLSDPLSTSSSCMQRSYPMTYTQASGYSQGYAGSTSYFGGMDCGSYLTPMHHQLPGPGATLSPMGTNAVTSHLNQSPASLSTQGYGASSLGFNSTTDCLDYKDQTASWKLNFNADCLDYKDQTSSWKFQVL

B1: MLYCD (protein, UniProt Q99J39 39-492)
chain: MDELLRRAVPPTPAYELREKTPAPAEGQCADFVSFYGGLAEASQRAELLGRLAQGFGVDHGQVAEQSAGVLQLRQQAREAAVLLQAEDRLRYALVPRYRGLFHHISKLDGGVRFLVQLRADLLEAQALKLVEGPHVREMNGVLKSMLSEWFSSGFLNLERVTWHSPCEVLQKISECEAVHPVKNWMDMKRRVGPYRRCYFFSHCSTPGEPLVVLHVALTGDISNNIQGIVKECPPTETEERNRIAAAIFYSISLTQQGLQGVELGTFLIKRVVKELQKEFPQLGAFSSLSPIPGFTKWLLGLLNVQGKEHGRNELFTDSECQEISAVTGNPVHESLKGFLSSGEWVKSEKLTQALQGPLMRLCAWYLYGEKHRGYALNPVANFHLQNGAVMWRINWMADSSLKGLTSSCGLMVNYRYYLEETGPNSISYLGSKNIKASEQILSLVAQFQNNSKL
B2: LIG3 (protein, UniProt P97386 1-1015)
chain: MTLAFKILFPRNLCALGRKELCLFPEQNRWAAISQFSQWSETNLLGGCCLLQRRKPVLALQRGHLRPRATHLTFWPGSHVGLCTGPCAMAEQRFCVDYAKRGTAGCKKCKEKIVKGVCRIGKVVPNPFSESGGDMKEWYHIKCMFEKLERARATTKKIEDLTELEGWEELEDNEKEQISQHIADLSSKAAATPKKKAAVQAKLTTTGQVTSPVKGASFITSTNPRKFSGFSAAKPNNSEQAPSSPAPGTSLSASKCDPKHKDCLLREFRKLCAMVAENPSYNTKTQIIHDFLQKGSTGGFSDGFHGDVYLTVKLLLPGVIKSVYNLNDKQIVKLFSRIFNCNPDDMARDLEQGDVSETIRIFFEQSKSFPPAAKSLLTIQEVDAFLLHLSKLTKEDEQQQALQDIASRCTANDLKCIIRLIKHDLKMNSGAKHVLDALDPNAYEAFKASRNLQDVVERVLHNEQEVEKDPGRRRALRVQASLMTPVQPMLAEACKSIEYAMKKCPNGMFSEIKYDGERVQVHKKGDHFSYFSRSLKPVLPHKVAHFKDYIPKAFPGGQSMILDSEVLLIDNNTGKPLPFGTLGVHKKAAFQDANVCLFVFDCIYFNDVSLMDRPLCERRKFLHDNMVEIRNRIMFSEMKQVTKASDLADMINRVIREGLEGLVLKDVKGTYEPGKRHWLKVKKDYLNEGAMADTADLVVLGAFYGQGSKGGMMSIFLMGCYDPDSQKWCTVTKCAGGHDDATLARLQKELVMVKISKDPSKIPSWLKINKIYYPDFIVPDPKKAAVWEITGAEFSRSEAHTADGISIRFPRCTRIRDDKDWKSATNLPQLKELYQLSKDKADFAVVAGDEASPTTGGSSGENEGTAGSAGPCKGPPSKSSASAKTTEQKLNSPSSRGGIKPIPKHSPMKPGEKLAVKSSPVKVGMKRKATDETPCLKKVLLDVFTGVRLYLPPSTPDFKRLKRYFVAFDGDLVQEFDMGSATHVLGNREKNTDAQLVSSEWIWACIRKRRLIAPC
B3: MOV10 (protein, UniProt P23249 1-1004)
chain: MPSKFSCRKLRETGQRFESFLAERGLDLETDRERLRTIYNHDFKPSYGTPAPGFSSMLYGMKIANLAFVTKTRVRFFKLDRWADVQLPEKRRIKPGSNISKQHRSLLARIFHDRAEYLHGKHGVDVEVQGPHEARDGQLLIHLDLNRKEVLTLRLRNGGSKPVTLTHLFPLCWTPQFVFYHGEQDLPCPLGPGESYELHIYCKTSIVGYFPATVLWELLGPGESGAEGAETFYIARFLAAVAHSPLAAQLKPTTPFKRPPRLTRNSVLTNRIEEGERPDRAKGYELELSLALGTYYPPILLRQLLPTLLQGPSIFTAPKEVAEIKAQLETTLKSRNYEVKLRLLLHLEELQMEHDIRHYDLDSVPMTWDPVDQNPRLLTLEVPGVAESRPSVLRGDHLFALLSSETQQDDPVTYKGFVHKVELDRVKLSFSTSLLSRFVDGLTFKVNFTFNRQPLRVQHRALELTGRWVLWPMLFPVASRGVSLLPSDVKFKLYDRSLESNPEQLQAMKHIVRGTTRPAPYIIFGPPGTGKTVTLVEAIKQVVKHLPKAHILACAPSNSGADLLCQRLRVHLPSSIYRLLAPSRDIRMVPEDIKTCCNWDAKKGEYVYPAKKHLQQYRVLITTLITASRLVSAQFPIDHFTHIFIDEAGHCMEPESLVAIAGLMDVKETGNPGGQLVLAGDPRQLGPVLRSPLALKHGLGYSLLERLLAYNSLYKKGPNGYDPQFITKLLRNYRSHPTILDIPNQLYYDGELQACADVVDRERFCRWEGLPQQGFPIIFHGVMGKDEREGNSPSFFNPEEAATVTSYLKQLLAPSSKKGKARLSPRNVGVISPYRKQVEKIRYCITKLDRELRGLDDIKDLKVGSVEEFQGQERSVILISTVRSSQSFVQLDLDFNLGFLKNPKRFNVAVTRAKALLIVVGNPLLLGHDPDWKTFLEFCKENGGYTGCPFPAKLDLQQGQDLLQGLSKLSPSTSGPRRHQNLPQEREGEGGLPLQVEPEWRNEL
B4: RBM39 (protein, UniProt Q8VH51 1-530)
chain: MADDIDIEAMLEAPYKKDENKLNSANGHEERSKKRKKSKSRSRSHERKRSKSKERKRSRDRERKKSKSRERKRSRSKERRRSRSRSRDRRFRGRYRSPYSGPKFNSAIRGKIGLPHSIKLSRRRSRSKSPFRKDKSPVREPIDNLTPEERDARTVFCMQLAARIRPRDLEEFFSTVGKVRDVRMISDRNSRRSKGIAYVEFVDVSSVPLAIGLTGQRVLGVPIIVQASQAEKNRAAAMANNLQKGSAGPMRLYVGSLHFNITEDMLRGIFEPFGRIESIQLMMDSETGRSKGYGFITFSDSECAKKALEQLNGFELAGRPMKVGHVTERTDASSASSFLDSDELERTGIDLGTTGRLQLMARLAEGTGLQIPPAAQQALQMSGSLAFGAVAEFSFVIDLQTRLSQQTEASALAAAASVQPLATQCFQLSNMFNPQTEEEVGWDTEIKDDVIEECNKHGGVIHIYVDKNSAQGNVYVKCPSIAAAIAAVNALHGRWFAGKMITAAYVPLPTYHNLFPDSMTATQLLVPSRR
B5: NFATC2 (protein, UniProt Q60591 1-927)
chain: MDVPEPQPDPDGGDGPGHEPGGSPQDELDFSILFDYDYLNPIEEEPIAHKAISSPSGLAYPDDVLDYGLKPCNPLASLSGEPPGRFGEPDSIGFQNFLSPVKPAGASGPSPRIEITPSHELMQAGGALRGRDAGLSPEQPALALAGVAASPRFTLPVPGYEGYREPLCLSPASSGSSASFISDTFSPYTSPCVSPNNAGPDDLCPQFQNIPAHYSPRTSPIMSPRTSLAEDSCLGRHSPVPRPASRSSSPGAKRRHSCAEALVAPLPAASPQRSRSPSPQPSPHVALQDDSIPAGYPPTAGSAVLMDALNTLATDSPCGIPSKIWKTSPDPTPVSTAPSKAGLARHIYPTVEFLGPCEQEERRNSAPESILLVPPTWPKQLVPAIPICSIPVTASLPPLEWPLSNQSGSYELRIEVQPKPHHRAHYETEGSRGAVKAPTGGHPVVQLHGYMENKPLGLQIFIGTADERILKPHAFYQVHRITGKTVTTTSYEKIVGNTKVLEIPLEPKNNMRATIDCAGILKLRNADIELRKGETDIGRKNTRVRLVFRVHVPEPSGRIVSLQAASNPIECSQRSAHELPMVERQDMDSCLVYGGQQMILTGQNFTAESKVVFMEKTTDGQQIWEMEATVDKDKSQPNMLFVEIPEYRNKHIRVPVKVNFYVINGKRKRSQPQHFTYHPVPAIKTEPSDEYEPSLICSPAHGGLGSQPYYPQHPMLAESPSCLVATMAPCQQFRSGLSSPDARYQQQSPAAALYQRSKSLSPGLLGYQQPSLLAAPLGLADAHRSVLVHAGSQGQGQGSTLPHTSSASQQASPVIHYSPTNQQLRGGGHQEFQHIMYCENFGPSSARPGPPPINQGQRLSPGAYPTVIQQQTAPSQRAAKNGPSDQKEALPTGVTVKQEQNLDQTYLDDVNEIIRKEFSGPPSRNQT
B6: PITPNM2 (protein, UniProt Q6ZPQ6 1-1335)
chain: MIIKEYRIPLPMTVDEYRIAQLYMIQKKSRNETHGQGSGVEILENRPYTDGPGGSGQYTHKVYHVGMHIPGWFRSILPKAALRVVEESWNAYPYTRTRFTCPFVEKFSIDIETFYKTDTGENNNVFNLSPVEKSQLITDIIDIVKDPVPPSEYKTEEDPKLFQSVKTCRGPLSENWIQEYKKRLLPIMCAYKLCKVEFRYWGMQSKIERFIHDTGLRRVMVRAHRQAWCWQDEWYGLTMEKIRELEREVQLMLSRKMAQFSEEGPSELSKDSATKDQASGTTSDPGSKNGEPLGRGLKKQWSTSSKSSRSSKRGASPSRHSISEWRMQSIARDSDEGSEEEFFDAHENLYCTEEKQAKDMTKWNSNDLMDKMESPEPEESQDEIYQQSGSEFRVASSVEQLNIIEDEVSQPLAAPPSKIHVLLLVLHGGTILDTGAGDPSSKQGDTNTITNVFDTVMRVHYPSALGHLAIRLVPCPPICADAFALVSNLSPYGHDEGCLSSSQDHIPLAALPLLATSSPQYQEAVATVIQRANLAYGDFIKSQEGVTFNGQVCLIGDCVGGILAFDALCYSGQPVSESQSSSRRGSVVSMQDADLLSPGTLANAAHCSGGSGGGGSGGSSLESSRHLSRSNIDIPRSNGTEDSRRQLPRKRSDSSTYELDTIQQHQAFLSSLHASVLRNEPSSRRSSSSTMLDGAGALGKFDFEIADLFLFGCPLGLVLALRKTVIPSLDVFQLRPACQQVYNLFHPADPSASRLEPLLERRFHSLPPFSIPRYQRYPLGDGCSTLLADVLQTHNTVFQEHAAPSSPGTAPAGRGFRRASEISIASQVSGMAESYTASSIAQKGPSSLNHTPSIRRLSLLALPPPSPTTQGPRARARQVSPNLERAPCLPDLDIGEVAAKWWGQKRIDYALYCPDALTAFPTVALPHLFHASYWESTDVVSFLLRQVMRHDSSSILELDGKEVSVFTPSQPRERWQRKRTHVKLRNVAANHRINDAVANEDGPQVVTGRFMYGPLDMVTLTGEKVDVHIMTQPPSGEWLHLDTLVTNSSGRVSYTIPETHRLGVGVYPIKMVVRGDHTFADSYITVLPRGTEFVVFSIDGSFAASVSIMGSDPKVRAGAVDVVRHWQDLGYLIIYVTGRPDMQKQRVVAWLAQHNFPHGVVSFCDGLVHDPLRHKANFLKLLISELHLRAHAAYGSTKDVAVYNSISLSPMHIYIVGRPTKKLQQQCQFITDGYAAHLAQLKYNHRARPARNTATRMALRKGSFGLPGQSDFLRSRNHLLRTISAQPSGPSHRHDRTQTQMDSEQRGQRSMSVAASCWGRAMAGRLEPGAATGPK
B7: POLDIP3 (protein, UniProt Q8BG81 1-420)
chain: MADLSLDELIRKRGTAAKGRLSVRPGIGGVRSRVGIQHSLVNQPARTATFQQRFDARQKIGLSDARLKLGVKDAREKLLQKDARFRIKGKVQDAREMLNSRKQQGTVPQKPRQVADAREKISLKRRSPAAFTSPPIGTVTPALKLTKTIQVPQQKAMVPLHAHPAGMRINVVNNHQAKQNLYDLDEDDDIVVPVPPKQMKFAATGSLVHHMTGLSSSKLSMSKALPLTKVVQNDAYTAPVLPSSVRTKALTSMSRTLVNKEEPPKELPPAEPVLSPLEGTKMTVNNLHPRVTEEDIVELFCVCGALKRARLVHPGVAEVVFVKKDDAITAYKKYNNRCLDGQPMKCNLHMNGNVITSDQPILLRLSDSPSVKKESELPRRGNPASSNPPAEVDPDTVLRALFKSSGASVTTQPTEFKIKL

biological target: OTX2 homeoprotein (mouse (endogenous in adult mouse brain tissue)) (UniProt P80206); assay: affinity purification with mass spectrometry; anti-OTX2 (ab21990) coupled to magnetic beads, lysate of pooled LV and 4V choroid plexus from four 3-month-old mice; 100 mM Tris pH 7.5, 1 mM EDTA, 100 mM NaCl, 1% NP40, 1 mM MgCl2, benzonase; 4 °C overnight; IgG co-IP as control; nano-LC-MS/MS; N = 3

binding | Binder
binds | B1
binds | B2
binds | B3
binds | B4
binds | B5
binds | B6
binds | B7

These are yes or no findings as the source states them, for the method shown. In cells and extracts the contact can be indirect. These calls come from enrichment with a bait or labelling near it, and not all partners need be listed.
